Earlier results, collected in US20080286344A1, “Solid form” (priority 2007, published 2008).

CC(C)Cc1ccc(C(C)C(=O)O)cc1 (centres unmarked) [Ibuprofen]
Solubility in water, g of water for 1 g (1 g active in stated g of water): more than 10,000 g water
Solubility in water (descriptive term) (water): practically insoluble
